Laboratory results from article PMC8141794.
Where a chain is given by its changes, count along the chain named. Results are given in words; binding and its absence hold for the method and conditions named. In cells and extracts the contact can be indirect. Some entries that bind do so weakly or less than the wild type. Sequences can lack the tags named with a protein.

Chains of the proteins cited; added tags and fusions are not shown.
UniProt Q8N6T3: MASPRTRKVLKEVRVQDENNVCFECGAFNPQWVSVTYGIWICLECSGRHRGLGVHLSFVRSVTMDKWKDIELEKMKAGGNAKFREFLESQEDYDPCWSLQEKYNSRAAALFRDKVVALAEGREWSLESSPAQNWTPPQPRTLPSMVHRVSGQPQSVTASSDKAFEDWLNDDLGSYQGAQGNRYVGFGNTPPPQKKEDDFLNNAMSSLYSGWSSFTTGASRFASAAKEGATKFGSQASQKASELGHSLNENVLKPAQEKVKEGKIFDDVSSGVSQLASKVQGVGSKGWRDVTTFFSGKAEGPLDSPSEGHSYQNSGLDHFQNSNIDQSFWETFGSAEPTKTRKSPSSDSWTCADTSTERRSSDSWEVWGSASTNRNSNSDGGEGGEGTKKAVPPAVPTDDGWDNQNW

What was measured:
[1] = target: T1, GST-C-terminus EAAT3-WT (human) (UniProt P43005); assay: pull-down; purified GST fusion proteins (30 μg) incubated with lysates (100 μg) of HEK293 cells overexpressing His-ARFGAP1 in 50 mM Tris HCl pH 7.4, 150 mM NaCl, 0.1% Triton X-100, 2 h on ice, then glutathione sepharose 4B 2 h at 4°C; immunoblot with anti-hexahistidine and anti-GST; only the target purified
T1 sequence: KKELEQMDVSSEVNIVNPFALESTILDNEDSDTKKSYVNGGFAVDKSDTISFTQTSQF

[2] = target: T2, GST-C-terminus EAAT3-F508A (human) (UniProt P43005); assay: as above
T2 sequence: T1 sequence with F42A

binding [1]: binds
binding [2]: binds
Substance: Human His6-ARFGAP1 (from UniProt Q8N6T3 1-406)
